Measurements published in PubChem BioAssay AID212 (DTP/NCI, 2004).
The list is a part of this screen's results and no random one: it is rich in T/C values a quarter to a half above the control, in often repeated tests (any T/C) and in doses without a T/C. Other doses and runs of a compound stand elsewhere. T/C is the treated group as % of the vehicle group. Schedules are NCI's codes, taken here to give the interval after Q, in days (D) or hours (H), and the number of doses after X. Some T/C values are followed by the survivors on the day toxicity was checked, most often the fifth; without a count, all were alive then. Some entries were tested several times; their values stand side by side, smallest first. Some entries give survivors of the animals treated and no T/C: the source holds a T/C of zero for them, seemingly a mark for toxic or unscored doses. Counts of survivors are from the toxicity check (mostly the fifth day) where no day follows; animals may have died later.

Test system: BDF1 mice, colon carcinoma 38 sc, T/C %
Experiment: NCI In Vivo Anticancer Drug Screen. Data for tumor model Colon Carcinoma 38 (subcutaneous) in B6D2F1 (BDF1) mice
Conditions: for T/C: evaluated on day 20
Procedure, shortened: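 Ratio of survival or tumor size, compound-treated animals relative to vehicle controls, in tumor-bearing mice.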

[1] = T/C endpoint: median tumor weight (est.), dose: 32.0 mg/kg/injection, schedule: Q07DX002 (ip), vehicle: saline, higher T/C = larger tumour
[2] = T/C endpoint: median tumor weight (est.), dose: 400.0 mg/kg/injection, schedule: Q07DX002 (ip), vehicle: saline with Tween-80, higher T/C = larger tumour
[3] = T/C endpoint: median tumor weight (est.), dose: 200.0 mg/kg/injection, schedule: Q07DX002 (ip), vehicle: saline, higher T/C = larger tumour
[4] = T/C endpoint: median tumor weight (est.), dose: 400.0 mg/kg/injection, schedule: Q07DX002 (ip), vehicle: saline, higher T/C = larger tumour
[5] = T/C endpoint: median tumor weight (est.), dose: 50.0 mg/kg/injection, schedule: Q07DX002 (ip), vehicle: Klucel (hydroxypropylcellulose) (HPC), higher T/C = larger tumour
[6] = T/C endpoint: median tumor weight (est.), dose: 400.0 mg/kg/injection, schedule: Q07DX002 (ip), vehicle: Klucel (hydroxypropylcellulose) (HPC), higher T/C = larger tumour
[7] = T/C endpoint: median tumor weight (est.), dose: 100.0 mg/kg/injection, schedule: Q07DX002 (ip), vehicle: saline, higher T/C = larger tumour

Nc1nc(=S)c2[nH]cnc2[nH]1
survivor count [1]: 6 of 10
survivor count (T/C endpoint: median tumor weight (est.), dose: 32.0 mg/kg/injection, schedule: Q07DX003 (ip), vehicle: saline, higher T/C = larger tumour): 3 of 10

CC(=S)NC(O)C(=O)c1ccccc1 (centres undefined)
survivor count [2]: 1 of 10 on day 20

C[C@]12C=CC(=O)C=C1CC[C@@H]1[C@@H]2C(=O)C[C@@]2(C)[C@H]1CC[C@]2(O)C(=O)CO
T/C (T/C endpoint: median tumor weight (est.), dose: 100.0 mg/kg/injection, schedule: Q07DX002 (ip), vehicle: Klucel (hydroxypropylcellulose) (HPC), higher T/C = larger tumour): 134 % of control

c1ccc2c(c1)[As]=c1ccccc1=[As]2 (centres undefined)
T/C (T/C endpoint: median tumor weight (est.), dose: 6.0 mg/kg/injection, schedule: Q07DX002 (ip), vehicle: saline, higher T/C = larger tumour): 128 % of control
T/C (T/C endpoint: median tumor weight (est.), dose: 12.0 mg/kg/injection, schedule: Q07DX002 (ip), vehicle: saline, higher T/C = larger tumour): 142 % of control [9 of 10 alive on day 20]
T/C (T/C endpoint: median tumor weight (est.), dose: 24.0 mg/kg/injection, schedule: Q07DX002 (ip), vehicle: saline, higher T/C = larger tumour): 145 % of control

Cc1ccc2c(c1)N=C(Nc1ccccc1)N=S2(C)=O (centres undefined)
T/C (T/C endpoint: median tumor weight (est.), dose: 100.0 mg/kg/injection, schedule: Q07DX002 (ip), vehicle: saline with Tween-80, higher T/C = larger tumour): 127 % of control [7 of 10 alive on day 20]
survivor count [2]: 6 of 10 on day 20

C=C1C(=O)OC2CC1CCC1(C)OC1CCC(C)=CCCC2(C)O (centres undefined)
T/C (T/C endpoint: median tumor weight (est.), dose: 15.0 mg/kg/injection, schedule: Q07DX002 (ip), vehicle: Klucel (hydroxypropylcellulose) (HPC), higher T/C = larger tumour): 135 % of control

COc1cc([C@@H]2c3cc4c(c(O)c3C[C@H]3COC(=O)[C@@H]32)OCO4)cc(OC)c1OC
T/C (T/C endpoint: median tumor weight (est.), dose: 0.5 mg/kg/injection, schedule: Q07DX002 (ip), vehicle: saline, higher T/C = larger tumour): 137 % of control

COc1cccc2c1C(=O)c1c(O)c3c(c(O)c1C2=O)CC(O)(C(=O)CO)CC3OC1CC(N)C(O)C(C)O1 (centres undefined)
survivor count (T/C endpoint: median survival time, dose: 250.0 mg/kg/injection, schedule: Q07DX002 (iv), vehicle: saline, higher T/C = longer survival): 0 of 10 on day 92
T/C (T/C endpoint: median tumor weight (est.), dose: 50.0 mg/kg/injection, schedule: Q07DX002 (ip), vehicle: water, higher T/C = larger tumour): 127 % of control
survivor count (T/C endpoint: median tumor weight (est.), dose: 162.0 mg/kg/injection, schedule: Q07DX002 (ip), vehicle: water, higher T/C = larger tumour): 4 of 10 on day 20
survivor count [3]: 3 of 10 on day 20
survivor count (T/C endpoint: median tumor weight (est.), dose: 324.0 mg/kg/injection, schedule: Q07DX002 (ip), vehicle: water, higher T/C = larger tumour): 0 of 10 on day 20
survivor count [4]: 0 of 10 on day 20
survivor count (T/C endpoint: median tumor weight (est.), dose: 648.0 mg/kg/injection, schedule: Q07DX002 (ip), vehicle: saline, higher T/C = larger tumour): 0 of 10 on day 20
survivor count (T/C endpoint: median tumor weight (est.), dose: 648.0 mg/kg/injection, schedule: Q07DX002 (ip), vehicle: water, higher T/C = larger tumour): 0 of 10 on day 20

COC1CC(C)C(OC)c2cc(O)cc(c2O)NC(=O)/C(C)=C/C=C\C(C)C(OC(N)=O)/C(C)=C\C(C)C1OC (centres undefined)
T/C (T/C endpoint: median tumor weight (est.), dose: 6.25 mg/kg/injection, schedule: Q07DX002 (ip), vehicle: saline + alcohol, higher T/C = larger tumour): 145 % of control
survivor count (T/C endpoint: median tumor weight (est.), dose: 50.0 mg/kg/injection, schedule: Q07DX002 (ip), vehicle: saline + alcohol, higher T/C = larger tumour): 5 of 10 on day 20

OC1CCCC2CCC[N-]C12.OC1CCCC2CCC[N-]C12.[Mn+2] (centres undefined)
T/C (T/C endpoint: median tumor weight (est.), dose: 12.5 mg/kg/injection, schedule: Q07DX002 (ip), vehicle: Klucel (hydroxypropylcellulose) (HPC), higher T/C = larger tumour): 141 % of control
T/C [5]: 132 % of control
T/C [6]: 126 % of control [8 of 10 alive on day 20]

COc1cc(C)c2c(c1C=O)Oc1c(c(C)c(O)c3c1C(O)OC3=O)OC2=O (centres undefined)
T/C (T/C endpoint: median tumor weight (est.), dose: 100.0 mg/kg/injection, schedule: Q07DX003 (ip), vehicle: suspension in saline, higher T/C = larger tumour): 125 % of control

C/C=C/c1cc2c(c(=O)o1)C(=O)[C@@H](O)[C@H](C)O2
survivor count [2]: 3 of 10 on day 20 and 6 of 10 on day 20

C(=N/NC1=NCCN1)/c1c2ccccc2c(/C=N\NC2=NCCN2)c2ccccc12
T/C (T/C endpoint: median tumor weight (est.), dose: 2.5 mg/kg/injection, schedule: Q07DX002 (ip), vehicle: suspension in saline, higher T/C = larger tumour): 131 % of control [9 of 10 alive on day 20]
survivor count (T/C endpoint: median tumor weight (est.), dose: 80.0 mg/kg/injection, schedule: Q07DX002 (ip), vehicle: suspension in saline, higher T/C = larger tumour): 0 of 10 on day 20

CSC(SC)=C1C(=O)NC(=O)NC1=O
survivor count [7]: 6 of 10 on day 20

Cc1ccc(NCC2(/N=C/c3ccccc3)OC(CO)C(O)C2O)cc1 (centres undefined)
T/C (T/C endpoint: median tumor weight (est.), dose: 6.25 mg/kg/injection, schedule: Q07DX003 (ip), vehicle: Klucel (hydroxypropylcellulose) (HPC), higher T/C = larger tumour): 127 % of control

COc1ccc2[nH]c3c(c2c1)CCNC3CC(C)CCC=C(C)C (centres undefined)
T/C (T/C endpoint: median tumor weight (est.), dose: 25.0 mg/kg/injection, schedule: Q07DX002 (ip), vehicle: Klucel (hydroxypropylcellulose) (HPC), higher T/C = larger tumour): 136 % of control
T/C [5]: 127 % of control [8 of 10 alive on day 20]
survivor count (T/C endpoint: median tumor weight (est.), dose: 200.0 mg/kg/injection, schedule: Q07DX002 (ip), vehicle: Klucel (hydroxypropylcellulose) (HPC), higher T/C = larger tumour): 6 of 10 on day 20
survivor count [6]: 2 of 10 on day 20

COc1cc2cc3cc4cc(OC)c(OC)cc4c(C)[n+]3cc2cc1OC (tested in a mixture with another compound)
survivor count [3]: 2 of 10 on day 20
survivor count [4]: 1 of 10 on day 20 and 6 of 10 on day 20

CC1=C(O)C(=O)[C@@H]2O[C@@H]2C1=O
survivor count (T/C endpoint: median tumor weight (est.), dose: 25.0 mg/kg/injection, schedule: Q07DX002 (ip), vehicle: saline, higher T/C = larger tumour): 3 of 10 on day 20
survivor count (T/C endpoint: median tumor weight (est.), dose: 50.0 mg/kg/injection, schedule: Q07DX002 (ip), vehicle: saline, higher T/C = larger tumour): 0 of 10 on day 20
survivor count [7]: 0 of 10 on day 20

N=C(N)SCc1c2ccccc2c(CSC(=N)N)c2ccccc12
survivor count [4]: 2 of 10 on day 20

O=C1CN(Cc2ccc3c(c2)OCO3)NO1
survivor count [2]: 4 of 10 on day 20

Nc1nccc2c1ncn2C1OC(CO)C(O)C1O (centres undefined)
T/C (T/C endpoint: median tumor weight (est.), dose: 4.6 mg/kg/injection, schedule: Q03HX024 (ip), vehicle: saline with Tween-80, higher T/C = larger tumour): 129 % of control
T/C (T/C endpoint: median tumor weight (est.), dose: 9.3 mg/kg/injection, schedule: Q03HX024 (ip), vehicle: saline with Tween-80, higher T/C = larger tumour): 133 % of control
T/C (T/C endpoint: median tumor weight (est.), dose: 37.5 mg/kg/injection, schedule: Q03HX024 (ip), vehicle: saline with Tween-80, higher T/C = larger tumour): 126 and 137 % of control [8 of 10 alive]
T/C (T/C endpoint: median tumor weight (est.), dose: 75.0 mg/kg/injection, schedule: Q03HX024 (ip), vehicle: saline with Tween-80, higher T/C = larger tumour): 128 % of control [7 of 10 alive]

O=CC(=O)c1ccc(O)cc1
T/C (T/C endpoint: median tumor weight (est.), dose: 100.0 mg/kg/injection, schedule: Q07DX002 (ip), vehicle: suspension in saline, higher T/C = larger tumour): 129 % of control

Cc1c(N)nc(C(CC(N)=O)NCC(N)C(N)=O)nc1C(=O)NC(C(=O)NC(C)C(O)C(C)C(=O)NC(C(=O)NCCc1nc(-c2nc(C(=O)NCCCNC(C)c3ccccc3)cs2)cs1)C(C)O)C(OC1OC(CO)C(O)C(O)C1OC1OC(CO)C(O)C(OC(N)=O)C1O)c1cnc[nH]1 (centres undefined)
survivor count [1]: 3 of 10 on day 20

C[C@H](N)C(=O)N[C@@H]1[C@H]2C(=C(O)C[C@@H](O)[C@@H]2O)C(=O)O[C@@H]1C
T/C (T/C endpoint: median tumor weight (est.), dose: 75.0 mg/kg/injection, schedule: Q07DX002 (ip), vehicle: saline, higher T/C = larger tumour): 132 % of control
T/C (T/C endpoint: median tumor weight (est.), dose: 600.0 mg/kg/injection, schedule: Q07DX002 (ip), vehicle: saline, higher T/C = larger tumour): 147 % of control [9 of 10 alive on day 20]
